Construct, isoform or probe ends are uncertain for at least one entry. Where a protein sequence is shown, tags need not be part of it.
Biological target: T1, Alfin1 (Medicago sativa) (UniProt Q40359)
T1 sequence (looked up, limits assumed): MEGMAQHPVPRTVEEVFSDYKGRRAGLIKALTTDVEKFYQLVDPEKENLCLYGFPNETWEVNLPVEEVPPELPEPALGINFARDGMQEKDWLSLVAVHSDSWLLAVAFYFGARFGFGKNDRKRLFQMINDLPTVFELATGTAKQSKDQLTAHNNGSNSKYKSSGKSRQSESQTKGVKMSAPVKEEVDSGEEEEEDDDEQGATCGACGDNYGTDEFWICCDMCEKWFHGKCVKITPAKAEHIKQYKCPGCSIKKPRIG
Test: binding assay
Conditions: DNA sequence that binds Alfin1 in vitro; selection method not given; purified recombinant protein

## GACGGCTGGGGGAAAGTGAGCGGTGGCCC (double strand) [Alfin1 binding sequence SEQ 3]
  binding result: binds
